Experiment [1] concerns the target FLAG-tagged MKL1 (megakaryocytic leukemia 1) (UniProt Q969V6). In words: co-IP; FLAG-MKL1 and V5-p65 transfected into HEK293 cells in the presence or absence of HDAC5; precipitated with anti-FLAG; Western blot. On the technique in general: Immunoblotting shows a protein as a band on a membrane.
In experiment [2] the target is endogenous MKL1 of THP-1 cells (human (endogenous in THP-1)) (UniProt Q969V6). In words: Re-ChIP; THP-1 cells, TNF-α (10ng/ml), with HDAC5 expression construct or empty vector, or siRNA targeting HDAC5 or scrambled siRNA; chromatin cross-linked with 1% formaldehyde; sequential ChIP with indicated antibodies; qPCR of IL-1, IL-6, TNF-α and GAPDH promoters. On the technique in general: Quantitative PCR measures a nucleic acid by following its amplification.

Sequences of proteins named here, by UniProt entry; tags and fusion partners are left off.
UniProt Q04206: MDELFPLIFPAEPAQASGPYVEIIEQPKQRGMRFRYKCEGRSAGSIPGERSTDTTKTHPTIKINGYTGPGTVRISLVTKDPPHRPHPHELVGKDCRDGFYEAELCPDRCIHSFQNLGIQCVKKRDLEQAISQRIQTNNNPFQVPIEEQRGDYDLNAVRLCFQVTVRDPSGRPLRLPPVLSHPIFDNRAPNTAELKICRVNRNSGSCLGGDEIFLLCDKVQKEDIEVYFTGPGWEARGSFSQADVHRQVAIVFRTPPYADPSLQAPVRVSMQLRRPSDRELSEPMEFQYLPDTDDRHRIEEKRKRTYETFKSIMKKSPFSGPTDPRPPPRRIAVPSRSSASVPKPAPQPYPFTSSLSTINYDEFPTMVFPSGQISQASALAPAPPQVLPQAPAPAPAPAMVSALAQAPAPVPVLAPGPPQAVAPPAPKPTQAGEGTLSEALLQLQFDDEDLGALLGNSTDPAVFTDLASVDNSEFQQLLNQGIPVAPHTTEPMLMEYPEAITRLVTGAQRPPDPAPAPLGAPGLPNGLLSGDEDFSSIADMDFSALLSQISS
UniProt Q9UQL6: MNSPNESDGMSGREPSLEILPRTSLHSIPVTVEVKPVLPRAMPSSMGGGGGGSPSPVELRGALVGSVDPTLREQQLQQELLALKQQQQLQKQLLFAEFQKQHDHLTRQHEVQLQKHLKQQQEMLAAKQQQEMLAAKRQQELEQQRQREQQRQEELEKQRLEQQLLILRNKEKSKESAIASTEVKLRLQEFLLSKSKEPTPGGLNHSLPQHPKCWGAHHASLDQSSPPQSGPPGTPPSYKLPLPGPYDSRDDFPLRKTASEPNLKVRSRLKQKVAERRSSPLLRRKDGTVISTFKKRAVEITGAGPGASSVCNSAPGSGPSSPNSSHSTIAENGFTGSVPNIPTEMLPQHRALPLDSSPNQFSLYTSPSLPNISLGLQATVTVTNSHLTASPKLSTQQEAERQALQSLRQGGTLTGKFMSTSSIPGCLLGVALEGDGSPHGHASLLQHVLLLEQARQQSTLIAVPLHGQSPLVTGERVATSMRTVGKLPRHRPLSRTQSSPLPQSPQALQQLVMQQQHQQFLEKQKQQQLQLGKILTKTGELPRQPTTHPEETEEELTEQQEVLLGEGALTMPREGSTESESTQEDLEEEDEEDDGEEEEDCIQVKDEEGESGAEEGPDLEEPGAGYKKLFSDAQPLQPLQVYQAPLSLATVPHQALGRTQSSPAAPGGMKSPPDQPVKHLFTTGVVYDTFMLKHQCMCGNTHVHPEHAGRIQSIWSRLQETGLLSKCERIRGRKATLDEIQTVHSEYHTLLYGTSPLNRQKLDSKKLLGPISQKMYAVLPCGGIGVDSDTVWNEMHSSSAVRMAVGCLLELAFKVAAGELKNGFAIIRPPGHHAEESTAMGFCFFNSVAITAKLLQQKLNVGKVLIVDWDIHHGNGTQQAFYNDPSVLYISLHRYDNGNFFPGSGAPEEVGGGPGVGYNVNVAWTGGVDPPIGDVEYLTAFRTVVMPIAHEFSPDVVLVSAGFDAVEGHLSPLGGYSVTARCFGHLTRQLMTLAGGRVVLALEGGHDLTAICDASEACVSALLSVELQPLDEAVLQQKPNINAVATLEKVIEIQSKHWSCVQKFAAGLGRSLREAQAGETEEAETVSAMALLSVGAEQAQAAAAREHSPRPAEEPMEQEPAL
UniProt Q04207: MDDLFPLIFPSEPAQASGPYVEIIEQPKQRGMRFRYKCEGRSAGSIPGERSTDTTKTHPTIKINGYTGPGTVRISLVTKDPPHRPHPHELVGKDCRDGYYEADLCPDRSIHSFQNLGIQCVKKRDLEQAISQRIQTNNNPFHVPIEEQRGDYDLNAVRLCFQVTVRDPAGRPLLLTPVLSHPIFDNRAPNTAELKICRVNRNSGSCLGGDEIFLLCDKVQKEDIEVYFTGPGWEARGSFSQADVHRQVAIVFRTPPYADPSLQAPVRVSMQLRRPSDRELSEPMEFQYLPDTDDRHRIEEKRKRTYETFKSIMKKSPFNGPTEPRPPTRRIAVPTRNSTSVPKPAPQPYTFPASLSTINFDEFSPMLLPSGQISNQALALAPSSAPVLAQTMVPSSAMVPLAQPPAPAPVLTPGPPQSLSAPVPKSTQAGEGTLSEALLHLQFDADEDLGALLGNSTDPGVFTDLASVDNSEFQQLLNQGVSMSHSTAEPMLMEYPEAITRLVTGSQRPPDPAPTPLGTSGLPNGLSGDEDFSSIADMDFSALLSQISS

Experiment [3] has the same target. Briefly: co-IP; THP-1 cells transfected with siRNA targeting HDAC5 or scrambled siRNA, then TNF-α (10ng/ml); endogenous proteins; precipitated with anti-MKL1; Western blot.
Experiment [4] shares this target. Briefly: co-IP; whole cell lysates of THP-1 cells, endogenous proteins; RIPA buffer; precipitated with indicated antibodies or pre-immune IgG, Protein A/G-plus agarose; Western blot.
For experiment [5], the target named is FLAG-tagged MKL1 (megakaryocytic leukemia 1) (UniProt Q969V6). In words: co-IP; FLAG-MKL1 and HA-HDAC5 co-transfected into HEK293 cells; whole cell lysate in RIPA buffer (50 mM Tris pH7.4, 150 mM NaCl, 1% Triton X-100); precipitated with anti-FLAG, and reciprocally with anti-HA; Western blot.
Experiment [6] deals with T1, endogenous MKL1 of RAW264 cells (mouse (endogenous in RAW264)) (UniProt Q8K4J6).
T1 sequence: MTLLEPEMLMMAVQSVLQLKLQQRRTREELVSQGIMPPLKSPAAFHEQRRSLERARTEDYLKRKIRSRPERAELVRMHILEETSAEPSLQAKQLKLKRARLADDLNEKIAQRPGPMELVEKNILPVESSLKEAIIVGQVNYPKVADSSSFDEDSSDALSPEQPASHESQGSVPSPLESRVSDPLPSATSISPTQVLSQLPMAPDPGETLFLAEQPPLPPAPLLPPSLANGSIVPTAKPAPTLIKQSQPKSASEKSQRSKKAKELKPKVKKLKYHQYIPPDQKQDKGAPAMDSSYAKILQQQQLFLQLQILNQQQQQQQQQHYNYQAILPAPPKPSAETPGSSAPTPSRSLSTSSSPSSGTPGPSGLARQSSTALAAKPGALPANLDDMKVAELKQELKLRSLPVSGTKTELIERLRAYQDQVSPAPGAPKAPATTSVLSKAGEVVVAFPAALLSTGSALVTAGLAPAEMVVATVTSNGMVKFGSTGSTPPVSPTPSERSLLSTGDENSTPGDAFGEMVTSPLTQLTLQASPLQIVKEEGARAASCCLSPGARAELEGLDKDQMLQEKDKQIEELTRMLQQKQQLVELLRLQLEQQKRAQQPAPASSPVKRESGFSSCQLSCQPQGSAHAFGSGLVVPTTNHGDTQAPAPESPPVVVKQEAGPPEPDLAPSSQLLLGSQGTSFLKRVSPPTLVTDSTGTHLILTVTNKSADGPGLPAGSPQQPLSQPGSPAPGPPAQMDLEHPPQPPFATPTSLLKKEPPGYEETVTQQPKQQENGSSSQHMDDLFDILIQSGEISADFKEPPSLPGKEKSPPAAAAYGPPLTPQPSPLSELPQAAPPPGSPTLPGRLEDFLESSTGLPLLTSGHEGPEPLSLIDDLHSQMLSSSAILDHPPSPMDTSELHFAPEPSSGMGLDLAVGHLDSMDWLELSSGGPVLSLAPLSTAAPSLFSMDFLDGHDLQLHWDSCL
Briefly: co-IP; RAW264 cells (Supplementary Figure 3); as the THP-1 experiment with HDAC5 silencing.

No constants are given. Whether binding was seen depends on the method and setting. For part of these data: In cells and extracts the contact can be indirect. Some binding calls cover weakened binding; strength is not graded here. For part of these data: Sequences can lack the tags named with a protein.

With “V5-tagged p65 (NF-κB p65 subunit) (from UniProt Q04206 1-551)”, the binding result in experiment [1] was “binds”.

For “endogenous p65 of THP-1 cells (from UniProt Q04206 1-551)”, the binding result in experiment [2] and in experiment [3] was “binds” throughout.

As to “endogenous HDAC5 of THP-1 cells (from UniProt Q9UQL6 1-1122) (enzyme)”, the binding entry in experiment [4] was “binds”.

For the substance “HA-tagged HDAC5 (histone deacetylase 5) (from UniProt Q9UQL6 1-1122) (enzyme)”, the binding entry in experiment [5] is “binds”.

Take “endogenous p65 of RAW264 cells (from UniProt Q04207 1-549)”: the binding result in experiment [6] is given as “binds”.
